# Data as given in PubChem BioAssay AID652272 (Drosophila RNAi Screening Center, 2013).
# Purpose: 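Genome-wide knock-down search for components of Hedgehog signalling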 (primary screen)
# Cell system: Drosophila clone 8 (Cl8) cells
# Reagent: long dsRNA against Drosophila genes
# Measured: 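Plate reader light from a firefly reporter under a ptc promoter fragment that responds to Hedgehog, with Renilla light as transfection reference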
# Direction: firefly Hh reporter signal: higher = more ptc reporter light; Renilla reference signal: higher = more Renilla control light
# Hit rule: 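Hit when the z-score averaged over two replicates is under -2 or over +3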
# Meaning of the calls: active = hit: reporter lowered or raised; inactive = not a hit
# In all, the deposit lists about 21,000 reagents; below is a random part of those with a known target gene and a result. In the full data, 503 (2.4%) got an active call. 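Raw plate light values, not normalised; calls rest on replicate z-scores that were not deposited; hits include reporter decreases as well as increases.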 Entries without a mark were called inactive. The record does not give: the amount of reagent, the time to read-out.
Gene,dsRNA,"firefly Hh reporter signal, replicate 1","firefly Hh reporter signal, replicate 2","firefly Hh reporter signal, replicate 3","Renilla reference signal, replicate 1","Renilla reference signal, replicate 2"
Ir40a,DRSC03732,61767,52971,,2023,4993
Ir40a,DRSC03733,58061,61212,,1571,5881
Vta1,DRSC08604,1.30e5,4.86e5,72661,4423,26228
CG9068,DRSC07329,85329,64295,,2701,4736
CG15601,DRSC19670,60317,1.56e5,,2499,7590
CG15525,DRSC15062,1.07e5,93024,,4076,2901
CG5478,DRSC15814,98484,1.14e5,,2824,3062
CG6005,DRSC15945,1.07e5,55125,,4432,2316
CG15373,DRSC19663,75264,2.26e5,,1827,9460
Adi1,DRSC10945,79178,67461,93798,5206,7137
CG33095,DRSC14441,4.71e5,75866,,24856,2219
Xpac,DRSC18730,79061,2.05e5,,2920,8269
chic,DRSC03507,1.43e5,55508,,4496,6720
CR18166,DRSC17260,4.47e5,1.93e5,,27025,4980
CR18166,DRSC18147,73640,2.22e5,,3057,10248
Srg1,DRSC14640,5.57e5,1.60e5,,27365,5116
Rpn1,DRSC11274,25378 (active),39955,,1803,2243
CG30414,DRSC04372,98665,54634,,3047,5176
Pkg21D,DRSC00772,92826,97042,,4716,4449
sqd,DRSC15160,1.24e5,1.41e5,,2626,3399
sqd,DRSC17066,4.50e5 (active),58438,,5097,5097
gus,DRSC04885,1.54e5,1.29e5,,6032,5463
gus,DRSC04886,66957,5.80e5,45099,1634,32469
CG42340,DRSC17458,7.11e5,5.86e5,2.49e5,39169,4954
CG42340,DRSC17841,96000,2.85e5,,3511,11403
CG42340,DRSC18305,64928,1.54e5,,1904,7626
Nost,DRSC18037,64306,2.90e5,,2269,10341
Nost,DRSC18338,91467,2.21e5,,4033,9147
Irp-1B,DRSC16720,79433,1.03e5,,2805,2611
HisRS,DRSC19986,80168,2.52e5,,2581,9892
CG13220,DRSC06342,84198,44240,,2043,3626
CG13138,DRSC02235,1.49e5,60377,,3760,5819
dtn,DRSC17939,84048,2.36e5,,2236,7241
shg,DRSC04714,1.31e5,77872,,5218,3059
gprs,DRSC06761,87187,38998,,2370,2874
Cyp301a1,DRSC07365,85129,58055,,2173,4240
RluA-1,DRSC02240,97616,50066,,2179,4076
RluA-1,DRSC03060,81772,69485,,2041,4868
Imp,DRSC18857,7.34e5,2.20e5,,36497,4311
Imp,DRSC18861,5.99e5,1.59e5,,32268,3383
Imp,DRSC20255,82485,74378,,1915,1876
dmrt99B,DRSC15045,48076,39892,,1956,1491
Srp54,DRSC03442,67473 (active),31427,,4036,2261
CecA2,DRSC16604,80023,1.15e5,,2283,3339
Uck,DRSC13661,50690,2.16e5,,12086,4922
Uck,DRSC16028,5.11e5,74720,,25803,2716
RpL23A,DRSC08694,49850 (active),35527,,4765,2637
CG13000,DRSC19519,50448,1.98e5,,1820,9697
CG32686,DRSC17645,4.75e5,1.72e5,,28560,4402
tn (retired record),DRSC05768,81202,1.91e5,,2338,6848
tn (retired record),DRSC06532,91911,50508,,4496,2492
Dhfr,DRSC16646,1.06e5,1.08e5,,3954,2368
Bx,DRSC19350,60262,55997,,1908,2897
Bx,DRSC19624,96508,2.24e5,,3670,9612
Burs,DRSC14595,8.50e5,1.69e5,,40640,3040
Aldh,DRSC02717,93569,36922,,2565,4267
Ts,DRSC00795,1.51e5,86488,,1992,7945

Hits, among the entries above:
Gene,dsRNA,"firefly Hh reporter signal, replicate 1","firefly Hh reporter signal, replicate 2","firefly Hh reporter signal, replicate 3","Renilla reference signal, replicate 1","Renilla reference signal, replicate 2"
Rpn1,DRSC11274,25378 (active),39955,,1803,2243
sqd,DRSC17066,4.50e5 (active),58438,,5097,5097
Srp54,DRSC03442,67473 (active),31427,,4036,2261
RpL23A,DRSC08694,49850 (active),35527,,4765,2637
